For one molecule, IC50 results are on record in patent US12473298B2, “Amide compounds, preparation method therefor, and use thereof in the medical field” (Shanghai Synergy Pharmaceutical Sciences Co., Ltd., priority 2019, dated 2025).

Test [1] concerns human diffuse large B-cell lymphoma cells (Karpas 422 cell). The experiment in a line: Karpas 422 cell proliferation, Calcein AM staining. Format: cell-based. Particulars: KARPAS-422, read-out: Karpas422 Proliferation IC50 Nanomoles per Liter (nM).
The subject of test [2] is human diffuse large cell lymphoma B lymphocytes (Pfeiffer cell). The experiment in a line: Pfeiffer cell proliferation, Calcein AM staining. Format: cell-based. Particulars: read-out: Pfeiffer Proliferation IC50 Nanomoles per Liter (nM).

For `CCN(c1cc(-c2ccc(CN3CCOCC3)cc2)cc(C(=O)NCc2c(C)cc(C)[nH]c2=O)c1C)C1CCOCC1` [EPZ-6438, reference compound], the IC50 is 13.3 nM in test [1] and 7.14 nM in test [2].
